According to patent publication US8026073B2, “Screening G protein-coupled receptor antagonists for methods of treating Alzheimer's disease” (Shanghai Institutes for Biological Sciences, Chinese …, priority 2005, dated 2011):
At least one structure is not confirmed: it was looked up by name or label, or the drawing left a doubt.

System: γ-secretase
Experiment: γ-Secretase fluorogenic substrate assay, C6 glioma membrane fractions
Format: cell-based

Question: With `C=C[C@@]1(C)CC(=O)[C@]2(O)[C@@]3(C)[C@@H](O)CCC(C)(C)[C@@H]3[C@H](O)[C@H](OC(C)=O)[C@@]2(C)O1` [forskolin] as the compound, how does the “γ-secretase activity, compound alone” value read?
Answer: did not result in enhanced γ-secretase activity
